In PMC5617977, “Antibacterial Activity and Toxicity of Analogs of Scorpion Venom IsCT Peptides” (Antibiotics, 2017):
Where no end group is shown, it is not given here.

Assay: Circular dichroism, helical structure
Type: physicochemical
Conditions: three independent experiments; for % Helix 50% TFE: CD in 50% TFE in water; for % Helix Water: CD in water; for [θ]222 50% TFE / [θ]222 Water: CD; for [θ]222 50% TFE: mean residue molar ellipticity in 50% TFE in water; for [θ]222 Water: mean residue molar ellipticity in water

| Substance | % Helix 50% TFE [%] | % Helix Water | [θ]222 50% TFE | [θ]222 Water [deg·cm^2·dmol^−1] |
| --- | --- | --- | --- | --- |
| IFGAIWNGIKSLF-NH2 [IsCT2, reference compound] | 22.0 | Random | −9006.83 deg·cm^2·dmol^−1 | −1242.43 |
| ILGAAWNGAKSLF-NH2 [IsCT2A1, alanine substituted (positions 5 and 9) analog of IsCT2] | 4.3 | Random | −3633.66 deg·cm^2·dmol^−1 | −89.92 |
| ILGAVWNGVKSLF-NH2 [IsCT2V1, valine substituted (positions 5 and 9) analog of IsCT2] | 14.0 | Random | −6586.81 deg·cm^2·dmol^−1 | −793.14 |
| ILGKIWEGIKSLF-NH2 [IsCT1, reference compound] | 30.2 | Random | −11,484.85 deg·cm^2·dmol^−1 | −2046.57 |
